This is an account of results in publication PMC7904954.

No constants are given. Whether binding was seen depends on the method and setting. Binding seen in cells or lysates may run through a third protein. Some entries that bind do so weakly or less than the wild type. Where a sequence is shown, tags or fusion partners need not be part of it.

The assay deals with T1, mNeonGreen-mPtpn1 (PTP1B) (mouse) (UniProt P35821).
T1 sequence: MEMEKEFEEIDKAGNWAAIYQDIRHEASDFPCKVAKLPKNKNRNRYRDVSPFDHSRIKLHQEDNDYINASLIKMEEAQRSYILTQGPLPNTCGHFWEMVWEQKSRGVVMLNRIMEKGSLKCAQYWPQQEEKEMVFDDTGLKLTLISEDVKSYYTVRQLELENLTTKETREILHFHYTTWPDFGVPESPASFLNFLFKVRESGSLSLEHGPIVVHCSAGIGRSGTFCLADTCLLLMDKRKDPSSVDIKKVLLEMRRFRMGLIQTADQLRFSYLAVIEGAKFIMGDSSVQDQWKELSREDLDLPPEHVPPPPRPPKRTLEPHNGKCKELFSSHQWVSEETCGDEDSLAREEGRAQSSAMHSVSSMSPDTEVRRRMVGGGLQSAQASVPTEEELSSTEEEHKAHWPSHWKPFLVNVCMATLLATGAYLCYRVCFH
Description: co-IP; anti-mNeonGreen antibody-bound magnetic beads (Dynabeads Co-Immunoprecipitation Kit) on lysates of WT mouse astrocytes co-infected with Ad-CMV-mNeonGreen-mPtpn1 and Ad-CMV-RFP-mCryba1; western blot for βA3/A1-crystallin in the eluent; mouse IgG beads as control. (In general: A western blot detects proteins with antibodies after separation by electrophoresis.)

B1: βA3/A1-crystallin (overexpressed from Ad-CMV-RFP-mCryba1) (protein, UniProt P02525 1-198)
chain: MLYLVLFLVPFNSIQITIYDQENFQGKRMEFTSSCPNVSERNFDNVRSLKVECGAWIGYEHTSFCGQQFILERGEYPRWDAWSGSNAYHIERLMSFRPICSANHKESKITIFEKENFIGRQWEICDDYPSLQAMGWFNNEVGSMKIQCGAWVCYQYPGYRGYQYILECDHHGGDYKHWPEWGSHAQTSQIQSIRRIQQ
B1: the binding entry is reported as “binds”.
